The values below come from publication PMC6925222.

Results are given in words; binding and its absence hold for the method and conditions named. Some entries that bind do so weakly or less than the wild type.

This test deals with T1, AIM2 (mouse (endogenous in BMDMs)), Q91VJ1.
T1 chain: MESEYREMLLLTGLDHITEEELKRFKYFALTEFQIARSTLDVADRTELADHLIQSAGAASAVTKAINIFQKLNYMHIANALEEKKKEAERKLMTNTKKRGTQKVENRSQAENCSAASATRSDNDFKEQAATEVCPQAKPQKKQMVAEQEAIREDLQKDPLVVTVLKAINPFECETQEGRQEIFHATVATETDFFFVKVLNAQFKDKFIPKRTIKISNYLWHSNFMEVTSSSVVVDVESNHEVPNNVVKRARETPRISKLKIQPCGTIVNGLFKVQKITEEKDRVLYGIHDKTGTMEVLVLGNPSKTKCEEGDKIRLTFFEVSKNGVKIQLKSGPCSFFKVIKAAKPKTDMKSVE
As to the kind of experiment: nonreducing SDS-PAGE of cell lysates with immunoblot; lysates of BMDMs exposed to 8 Gy irradiation, with or without Andrographolide; separated by nonreducing SDS-PAGE and detected with antibodies against AIM2. Conditions: remark: other sources report otherwise.

B1: AIM2, Q91VJ1 1-354 (protein)
chain: T1 chain
As for B1, the binding result was “binds”.
